Assay results: patent US5326856A, “Bifunctional isothiocyanate derived thiocarbonyls as ligands for metal binding” (Cytogen Corporation, priority 1992, dated 1994)

Assay: ITLC determination of Tc-99m incorporation and chelating capacity
[1] = ITLC in 0.9% saline, incubated 90 min at 37° C.

Chelating Agent A-NH-SYRGDVRGDF: chelating agent A coupled with SYRGDVRGDF-NH2 peptide (chelating agent A; C-terminal amide)
gamma radiation, Bottom of ITLC Strip [1]: 1752221.2 cpm | gamma radiation, Top of ITLC Strip [1]: 117530.0 cpm | Percent of Tc-99m Incorporation onto peptide chelator conjugate (bottom of ITLC strip, 90 min at 37° C., pH 4.5): 94%
